The experiment addresses T1, Enp1-C-HTP (S. cerevisiae) (UniProt P38333).
T1 sequence: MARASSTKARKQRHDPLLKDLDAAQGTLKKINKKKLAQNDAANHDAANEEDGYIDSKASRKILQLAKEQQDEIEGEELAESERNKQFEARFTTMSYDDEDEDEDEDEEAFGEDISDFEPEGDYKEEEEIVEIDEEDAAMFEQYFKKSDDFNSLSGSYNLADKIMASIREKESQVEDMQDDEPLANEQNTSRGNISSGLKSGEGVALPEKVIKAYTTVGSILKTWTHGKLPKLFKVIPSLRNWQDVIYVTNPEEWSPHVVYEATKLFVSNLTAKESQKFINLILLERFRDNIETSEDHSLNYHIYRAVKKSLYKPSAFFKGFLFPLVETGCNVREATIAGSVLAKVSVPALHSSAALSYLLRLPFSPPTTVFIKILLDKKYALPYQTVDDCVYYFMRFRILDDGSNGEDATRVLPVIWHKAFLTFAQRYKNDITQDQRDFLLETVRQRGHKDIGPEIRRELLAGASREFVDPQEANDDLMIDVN
Nature of the experiment: pull-down; extracts of cells expressing HA-Rok1 and Enp1-HTP incubated with IgG sepharose (one-step purification of Enp1-HTP pre-ribosomal complexes); eluate analysed by SDS-PAGE and Western blotting (anti-HA, anti-PAP, anti-GAPDH).

These are yes or no findings as the source states them, for the method shown. In cells and extracts the contact can be indirect. Some binding calls cover weakened binding; strength is not graded here. Where a sequence is shown, tags or fusion partners need not be part of it.

One molecule from article PMC4105744 can be followed below.

B1: HA-tagged Rok1 (enzyme, UniProt P45818 1-564)
chain: MDIFRVLTRGASVKKESGPKAKAADYSVINGNDENHKEDNNESQIVKELDFFRNKRIISKVEDDREKTTENDSPNKEEKSGNDDGLIKPVITNTVEASALRKSYKGNVSGIDIPLPIGSFEDLISRFSFDKRLLNNLIENGFTEPTPIQCECIPVALNNRDVLACGPTGSGKTLAFLIPLVQQIIDDKQTAGLKGLIISPTKELANQIFIECFKLSYKIFLEKKRPLQVALLSKSLGAKLKNKVVSDKKYDIIISTPLRLIDVVKNEALDLSKVKHLIFDEADKLFDKTFVEQSDDILSACREPSLRKAMFSATIPSNVEEIAQSIMMDPVRVIIGHKEAANTNIEQKLIFCGNEEGKLIAIRQLVQEGEFKPPIIIFLESITRAKALYHELMYDRINVDVIHAERTALQRDRIIERFKTGELWCLICTDVLARGIDFKGVNLVINYDVPGSSQAYVHRIGRTGRGGRSGKAITFYTKQDSVAIKPIINVMKQSGCEVSEWMDKMAKMTRKEKESIKNGKAHKERKQITTVPKMDKAKRRRQQEMIAASKRRKNEELSKKHFSK
Consider B1, for which the binding entry is “binds”.
